From patent US20240285553A1, “METHODS TO MODULATE MITOPHAGY WITH SREBP SIGNALING PATHWAY ACTIVATORS” (THE TRUSTEES OF INDIANA UNIVERSITY, priority 2021, published 2024)
At least one structure is not confirmed: it was looked up by name or label, or the drawing left a doubt.

How the values were obtained:
[1] = test system: pulmonary arterial endothelial cells (PAECs); test: Western blot of mitochondrial marker TOM20 as measure of mitophagy; format: cell-based, human
Description: (§1) Western blot. Cell lysates were resolved on a SDS PAGE pre-cast gel (Invitrogen) and resolved proteins were transferred on to a PVDF membrane for further detection of proteins using specific antibodies. Antibodies for SREBP1 were purchased from Santa Cruz Biotechnology (Cat #sc-365513) and Novus biological (Cat #NB100-2215). SCD antibody was purchased from Santa Cruz Biotechnology (Cat #sc-58420). Tom20 and LAMP1 antibodies were purchased from Cell Signaling (Cat #42406S and 15665S, respectively).
First, degradation of a mitochondrial marker (TOM20) was evaluated as a bio-chemical marker of mitophagy induction.

[2] = test system: SREBP1; test: Western blot of SREBP1, SCD and NCEH1 (SREBP1 activation); format: cell-based, human; conditions: ECs / PAEC
Description: as §1, with “respectively). […]” for “respectively).”

CCCc1cc(-c2nc(-c3ccc(C)cc3)cs2)ccn1 [fatostatin]
Tom20 levels (mitophagy) ([1]; ECs / PAEC): increased TOM20
effect on propranolol-induced mitophagy ([1]; PAEC, propranolol with fatostatin): partially reversed
SCD (SREBP1 target) levels [2]: reduced SCD
SREBP1 levels (non-cleaved; decrease indicates cleavage and activation) [2]: increased non-cleaved SREBP1
